# Experimental data taken from PubChem BioAssay AID1508600 (Functional Genomics Laboratory (NCATS/FGL), 2020).
# Screen size: about 53,000 sequences; about 3,700 (7%) were called active.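 Rule for the calls: active = gene knockdowns whose robust z-score for IL-1 alpha signal is at least 2 or at most -2, so actives lie on both sides; inactive = the rest.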 The list shows a part of the results.
# Experiment: Components of the Cytosolic LPS Sensing Pathway: Gene Identification via Genome-wide siRNA Screen;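 note: robust z of the log signal after scaling to non-targeting control siRNA wells of the plate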
# Settings: RAW264.7 macrophages, IL-1a HTRF, actives lie on both sides, screened at 100 nM (by protocol), cells primed 5 h with Pam3CSK4 first
# In short: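 Three distinct siRNAs per gene were tested singly at 100 nM in RAW264.7 macrophages. Following Pam3CSK4 priming and 24 hour LipidA transfection, IL-1a secretion was read by HTRF.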
row,Sequence,z-score
1,GGAGGAAGCUCAUCUAUGATT against Rpl7,inactive: 0.964
2,CCUCGUUCCAAUCAAGCCUTT against Ftsj3,inactive: 1.45
3,GGAAGUAGGAUAUUUACACTT against Sypl2,inactive: 1.8
4,GGUGCCAUUGACAUUUAAUTT against Tut7,inactive: -0.0865
5,GGUUCUCGUGUGGCACACUTT against B3gat2,inactive: 0.126
6,CCACACUCUUGGAAUUACGTT against Gsg1,inactive: -1.22
7,GGUCAUCAGUGAGCUGAAUTT against Rplp2,inactive: 0.125
8,GGCUGAGAAUUACUUAAACTT against Ift43,inactive: -0.796
9,GGAAUGCUAUGUGUAUAGUTT against Slc38a9,inactive: -0.423
10,AAAACAACCUAUUCAAGGATT against Klk1b3,inactive: 1.04
11,GGAAAUUACGCAUAUCCAUTT against Cntn1,inactive: 0.843
12,GCGUGCUUCUGUUUACCAUTT against Hnrnpl,inactive: -0.711
13,CCUUCUAAUUAUCACCAAATT against Arhgap18,inactive: -0.102
14,GCAUGGCCAAUCUACCCUUTT against Bcl9l,inactive: -0.463
15,GGAAAAAAUCACAUUGACUTT against H2ac6,inactive: -0.835
16,GGCAAUUCUGGAGGCUCUUTT against Ubqln1,inactive: -0.746
17,GGUGAAAUCCGUUACUUUGTT against Bloc1s5,inactive: -0.557
18,CCAUCUACAAGUGUCCUUATT against Zfp276,inactive: -0.632
19,GCAGAAACCUCAUCACUAATT against Bambi,inactive: -1.32
20,GGUGAAUGAAACUUUCUGUTT against Adamts13,inactive: 0.264
21,GGAGAAACCAGCUAAAGGATT against Car9,inactive: -0.235
22,CCUGAGCUAGAAUCUCAGATT against Zmat2,inactive: 0.715

row,Sequence,z-score
1,GAGAUGUCGAUGCAAAUUCTT against Fxyd1,inactive: 0.389
2,GGAUUUUCACUUUUACUCUTT against Fam199x,inactive: -0.715
3,GGACAAGAACUUAGUGAUGTT against Emc9,inactive: 0.522
4,GGACAUCAUUACAAAGAUGTT against Rgs6,inactive: -0.608
5,GGCAUGUUUCUACAUCUUATT against Rgs12,inactive: 0.455
6,GCAAUGGUUCUCUUCAACCTT against Ppp3cb,inactive: -0.679
7,CGUGCACUGGAGAUUCCAUTT against Slc41a1,inactive: -0.329
8,GGAAGCGUGGAAGUCUACGTT against Kcnj16,inactive: 0.277
9,GCCCUAUCCACCCAUUGAGTT against Hs3st1,inactive: -0.319
10,GGUGUUCUACUGUGCAUUATT against 9330132A10Rik,inactive: 0.578
11,GGUAUGGUAUUGUGUAUUUTT against Cyp2c38,inactive: -1.6
12,CCCACUAAGAAACAAUCUATT against Gp1ba,inactive: 0.189
13,GGAAAGAAAAAAGAUGGUCTT against Riok1,inactive: -0.674
14,GGAUUCUUUCCAACAGAUUTT against Wwp2,inactive: -0.00908
15,GGAAGAAUUUGACAACCGCTT against Mrps18c,inactive: 0.583
16,GGUAUAAAGCAACUUACUATT against Rab7b,inactive: -0.575
17,GCAGAUCAGUUGGUACAAGTT against Acss3,inactive: 0.0616
18,GCGUAAGCAGCAAGAUGGATT against Ash2l,inactive: 1.21
19,GCCUUUUUACAGCUCAGGUTT against Zfp975,inactive: -0.623
20,GGAGCACUUUGUAUGGAACTT against Ube2q2,active: 2.97
21,GGUGGAAUCAAUAUUGUAUTT against Tmem64,inactive: -1.2
22,GGAAAAGAAAGGAACACUGTT against Defb13,inactive: 0.51

row,Sequence,z-score
1,GGACUUCUUUUGAAUCGGATT against Pex14,inactive: 0.464
2,GCUAAUGCACCAAUGUGAGTT against Pafah1b3,inactive: -1.53
3,GGUGUUAGGAAGUCACAUUTT against Tas2r109,inactive: -1.28
4,GGUUAGUCUGACCUGCCUGTT against Ighg3,inactive: -0.288
5,CCCUUAAUAAAGAAGGGACTT against Atg9a,inactive: 0.961
6,GGAAAGCAAUACAAUCAAATT against Ndufaf4,inactive: 0.989
7,CCACAGAUUUGCCUGAAAATT against Cabs1,inactive: 1.05
8,CCAAUGUUUGAAUUCUUCGTT against Nudt1,inactive: 0.729
9,GGACCUUUCCGAGUCCAUUTT against Tmed10,inactive: 1.07
10,GGAACAGCAAAAAUAAGACTT against Vmn1r225,inactive: 0.443
11,GCUAUCUCGGUGUCAACUUTT against Aqp7,inactive: -1.26
12,CGCGGCUUCUCAAAAAGCATT against Nkx6-2,inactive: -1.84
13,GGAAAUGGCUCAUUUUAUCTT against Mmgt1,inactive: 0.689
14,GGUGGAUUCUCCACUGUUUTT against Bmp2k,inactive: 0.523
15,GCCAGAACCUGACUUAUAUTT against Mia2,inactive: -0.0793
16,CCCUAUGGUUUAUAUGAAUTT against Ptk2b,inactive: -1.62
17,GGUAACCAUCAAAUAUUCCTT against Pan2,inactive: 1.59
18,GAAUCUUAGGAAGAUGACATT against Krtap9-3,inactive: -1.18
19,CCAAGAGCCUUUCUAACAATT against Pnrc2,inactive: -1.51
20,GGGCAUUCAGCAGUUACAGTT against Lrriq4,inactive: 0.521
21,GCUCCUUUAGUCCUCACCATT against Mrpl10,active: -2.15
22,GGAAUGGAGUCCUAGUCCATT against Spdef,inactive: -0.566

# Some of the entries above, reformatted:
row	Sequence	z-score
15	GCCAGAACCUGACUUAUAUTT against Mia2	inactive: -0.0793
16	CCCUAUGGUUUAUAUGAAUTT against Ptk2b	inactive: -1.62
17	GGUAACCAUCAAAUAUUCCTT against Pan2	inactive: 1.59
18	GAAUCUUAGGAAGAUGACATT against Krtap9-3	inactive: -1.18
19	CCAAGAGCCUUUCUAACAATT against Pnrc2	inactive: -1.51
20	GGGCAUUCAGCAGUUACAGTT against Lrriq4	inactive: 0.521

# Further results.

row,Sequence,z-score
1,CCUGAUGGCUUUCAUCUUATT against Olfr815,inactive: -0.432
2,GGAAUUCCAAUGUUACCAUTT against Meltf,active: 3.35
3,CCUUCGUAAUGACUGAGGATT against Iba57,inactive: 0.205
4,GGGAGAACACAUCUACUGATT against Slamf6,inactive: -1.17
5,GGAGCUAGCAAGUAAAACUTT against Lbx2,inactive: -0.996
6,CCUUCUUGAAAACUCCAAGTT against Lum,inactive: -0.862
7,GCCGGUGACUGUUGUGUAUTT against Mppe1,inactive: 0.0525
8,GGAAGAGAAUGUGAAGCUGTT against Aqp3,inactive: -0.787
9,AGUGGGCUUCAAAUUUCCATT against Aym1,inactive: -0.551
10,GGAAAAUCUUCUAUCGAACTT against Prdm9,inactive: 0.383
11,GGAUGAAGAACUGACUCCGTT against Mboat2,inactive: -0.108
12,GCAUAGACAUGGCUGCAUUTT against Arntl2,inactive: 0.442
13,GGAGGAUCUUUCAAAGAGATT against Egfl8,inactive: 0.763
14,GGAUUUAACAGAGAUACUGTT against H2-M11,inactive: -0.703
15,GGGCUUCCUUAUGAAUUGATT against Rbmx2,inactive: 0.442
16,GCCCAUGUUAGAGGUUUUGTT against Rsph3a,inactive: 0.838
17,GGCAAACGAAUGCAUGUACTT against Rbm4b,inactive: -0.485
18,GGCCUCACAGUGCUUUCUCTT against Olfr1232,inactive: 0.0779
19,GGAUUCCUUUCACAAGGCCTT against Rab17,inactive: 1.18
20,GCCAGAUGGUACGAAUGGCTT against Cdc5l,inactive: -1.18
21,GGCCAGAAGAACUAACAGUTT against Cept1,inactive: -0.11
22,GGCAAAGAGAGAAUUAAAUTT against Ssx2ip,inactive: -1.15

# Random excerpt: two records from the list.
row,Sequence,z-score
2,GGAAUUCCAAUGUUACCAUTT against Meltf,active: 3.35
5,GGAGCUAGCAAGUAAAACUTT against Lbx2,inactive: -0.996

# (cont.)

row,Sequence,z-score
1,GGGUCAUUUCCUAUGCAGGTT against Olfr866,inactive: -1.24
2,GGCUGAGCUGAUCUUCUUATT against Wnt8a,inactive: -0.037
3,GGAUAGCAUCCUCUUGCAUTT against Fa2h,inactive: -1.29
4,CCCGGAAUAAGACAAUUUCTT against Olfr788,inactive: 0.282
5,GCACAGUCUCAUGAAUAUUTT against A130014H13Rik,inactive: -1.22
6,GGUCCAGAAGCAGAUGCUUTT against Zdhhc15,inactive: -0.174
7,GGGCUAUGAACCUGAAGAGTT against Msl1,inactive: 1.33
8,GCAAGACGUGACCUGAAAGTT against Gpc3,inactive: -0.99
9,GGGAGAAGUGCUGUGGAUUTT against Fras1,inactive: 0.401
10,GGAGAGGAAGAUUUUCUCCTT against Ttll8,inactive: 0.52
11,GGAACAAGAAGUUGAAACATT against Capn6,inactive: -0.894
12,GGAUCUGAAGACAGUGUUUTT against Dap3,inactive: -0.245
13,GAGAACUCUCUAAACAAGUTT against Cks2,inactive: 0.714
14,GGACAAUUAAGAUAGCCAUTT against Fhod3,inactive: -0.153
15,GGAGGAGAAAAUCAAACCATT against Ddx19b,inactive: -1.18
16,CGUAUUUUUACUGGUUGGGTT against Ermard,inactive: 0.101
17,GGUCAAAGUGAUUGUGUGUTT against Cdh16,inactive: 0.555
18,GCAAAGCUUCUUUUGGGAUTT against Runx2,inactive: 0.262
19,CGACGAAGUGGUCGGAAUUTT against Cryzl1,active: 2.1
